From PubChem BioAssay AID2551 (National Center for Advancing Translational Sciences (NCATS), 2010)
“And” between values parts separate entries of the source, which are not always exact repeats. Equal entries are not always repeated. In all, about 310,000 compounds went through this assay and about 17,000 (5.5%) were called active. The inconclusive results got no clear call from the source; some entries with a clear call stand among them for comparison. Calls follow the shape of the dose curve; as a rule, active = well fitted inhibition curve with a large enough effect; inconclusive = small, poorly fitted or top-dose-only effect, or effect the other way; inactive = no such curve, though single readings can be large or run the other way. A potency beside an inconclusive call is a rough fit, not a confirmed value.

The chains behind the UniProt entries cited, without tags or fusion partners. Where a name states a change or a piece, a line headed by the entry shows the natural chain unless it says otherwise.
UniProt P51450: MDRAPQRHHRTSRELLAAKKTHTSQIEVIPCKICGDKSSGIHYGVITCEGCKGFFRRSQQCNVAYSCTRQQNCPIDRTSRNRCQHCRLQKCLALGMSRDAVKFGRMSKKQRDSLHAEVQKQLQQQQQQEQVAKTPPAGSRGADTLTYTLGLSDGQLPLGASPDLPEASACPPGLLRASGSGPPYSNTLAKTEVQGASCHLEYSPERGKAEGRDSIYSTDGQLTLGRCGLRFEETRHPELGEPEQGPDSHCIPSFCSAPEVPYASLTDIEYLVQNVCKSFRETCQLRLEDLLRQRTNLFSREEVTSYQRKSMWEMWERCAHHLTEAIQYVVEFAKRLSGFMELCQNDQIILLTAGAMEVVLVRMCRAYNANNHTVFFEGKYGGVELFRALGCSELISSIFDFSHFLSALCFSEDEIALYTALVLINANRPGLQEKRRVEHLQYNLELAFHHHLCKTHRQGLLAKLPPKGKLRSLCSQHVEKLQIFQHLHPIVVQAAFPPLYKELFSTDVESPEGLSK

The compounds below were run against Nuclear receptor ROR-gamma (Mus musculus) (UniProt P51450) (assay: qHTS for inhibitors of ROR gamma transcriptional activity). Settings: Drosophila S2 Gal4-RORgamma UAS-luciferase reporter, 20 h; activity change, negative = inhibition: at 53.6 µM (top of the series).
Summary of the method: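 Luminescence from a UAS-regulated Photinus luciferase reporter in stably transfected Drosophila Schneider cells is measured; decreased signal marks ROR gamma inhibition. Fusion expression is induced by 700 uM copper sulfate for 20 hr.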
% is scaled to controls: 0 for no effect and ±100 for the full control effect; potency is read from the fitted curve at half-maximal effect.
Also: nearly all actives have a fitted effect of over 60% in size.

Potency, inactive:
O=C(CSC1=NCCS1)Nc1ccnc2ccccc12
Cc1ccccc1Nc1ncc(C#N)c(N)n1
O=C(NNc1cccc(Cl)n1)C(F)(F)F
COCCn1c(=O)c(-c2ccc(F)cc2)nc2cnc(N3CCOCC3)nc21
COc1cc(NC(=O)CN2c3ccccc3CC2C)cc(OC)c1OC (centres undefined)
CC(=O)c1ccc(NC(=O)Nc2ccc3c(c2)nc(C)n3C)cc1
CC(C)C(=O)N1CCN(c2ccccc2NC(=O)COc2ccccc2)CC1
Cc1csc2c(=O)n(CCO)c(=O)[nH]c12
CC(C)=C(NC(=O)c1ccccc1)C(=O)NCCc1nc2ccccc2[nH]1
CC(C)N(C(=O)CSc1nnc(Cc2csc(Nc3ccccc3)n2)o1)C(C)C
C=CCNc1nc(N)c([N+](=O)[O-])c(NC2CCCCC2)n1
Cc1ccccc1N(C(=O)c1snc(C(N)=O)c1N)C(C(=O)NCC1CCCO1)c1ccc(F)cc1 (centres undefined)
COc1ccccc1CNC(=O)CCC(=O)N1CCOc2ccc(C)cc21
O=C1/C(=C\c2ccco2)SC(=S)N1c1ccccc1
Cc1ccc(S(=O)(=O)N(C)C)cc1-n1c(SCC(=O)Nc2ccc(F)c(F)c2F)nc2ccccc2c1=O
CCCCCCn1c(SCCC)nc2c1c(=O)[nH]c(=O)n2C
Cn1c(=O)c(-c2ccc(Cl)cc2)nc2cnc(N3CCOCC3)nc21
CSc1nc2sc3c(c2c(=O)n1C1CCCCC1)CCN(C)C3
CCOC(=O)c1c(C)[nH]c(C(=O)COC(=O)CNC(=O)c2ccc(Cl)cc2Cl)c1C
CCCN(CCC)CCNC(=O)c1cc2c(-c3ccccc3F)nn(C)c2s1

Potency, inconclusive:
Cc1cccc(OCC(=O)N/N=C/C=C/c2ccco2)c1 12.6 µM [inhibitor, single point]
O=C(NCCOC(=O)c1ccncc1)c1ccccc1 0.112 µM [inhibitor, single point]
N#CCc1ccc(NC(=O)Nc2cccc(Cl)c2)cc1 7.08 µM [activator, partial curve]
O=C(CSc1ccc(-c2ccc(Br)cc2)nn1)NCC1CCCO1 (centres undefined) 35.5 µM [activator, single point]
CCC/C=C(\CCC)C(NC(=O)OCC(C)C)c1ccc(C(=O)OC)cc1 (centres undefined) 2 µM [activator, partial curve] and 20 µM [activator, single point]
CCc1nnc(NC(=O)c2sc3nc4c(cc3c2N)CCCCCC4)s1 28.2 µM [inhibitor, single point]
Cc1ccc(NC(=O)C(C)SCc2ccccc2)cc1 (centres undefined) 2.51 µM [activator, partial curve]
CCN(CCCNC(=O)C1CCCN(S(=O)(=O)c2cnc[nH]2)C1)c1ccccc1 (centres undefined) 17.8 µM [activator, single point]
Cc1c(C(Nc2ccccn2)c2ccccc2)c(=O)n(-c2ccccc2)n1C (centres undefined) 5.62 µM [activator, single point]
CCOC(=O)c1c(C)nc2c(c1-c1ccc(Cl)cc1)C(=O)CC(C)(C)C2 11.2 µM [activator, partial curve]
C/C(=N/NC(N)=S)c1cc2ccc(O)cc2oc1=O 6.31 µM [inhibitor, partial curve, poor fit]
Cc1sc2ncnc(SCC(=O)Nc3nc(-c4ccc(F)c(F)c4)cs3)c2c1C 14.1 µM [inhibitor, single point]
CCOc1ccc(CCn2c(-c3ccco3)nc3ccccc3c2=O)cc1OCC 3.55 µM [activator, full curve, poor fit]
COc1ccc(N(CC(=O)Nc2cccnc2)S(=O)(=O)c2ccc(C)cc2)cc1Cl 35.5 µM [activator, single point]
COc1ccccc1-c1nnc2sc(-c3ccc(N(C)C)cc3)nn12 11.2 µM [activator, partial curve]
NS(=O)(=O)c1ccc(NCC2COc3ccccc3O2)c([N+](=O)[O-])c1 (centres undefined) 12.6 µM [activator, single point]
COc1ccc(CN(CC2CCC(C(=O)O)CC2)C(=S)Nc2cc(Cl)ccc2OC)cc1 (centres undefined) 25.1 µM [activator, single point]
COc1ccc(CC(=O)N/N=C/c2cc(Br)cs2)cc1OC 15.8 µM [activator, partial curve]
Cc1ccc(C)c(N2CCN(C(=O)CSc3ccsc3[N+](=O)[O-])CC2)c1 1.41 µM [activator, partial curve, poor fit]
CC(C)=CC(=O)OCC(=O)Nc1cccc([N+](=O)[O-])c1 10 µM [activator, partial curve, poor fit]
CCN(C(=O)c1ccc(C(C)(C)C)cc1)c1nnc(Cn2nnc3ccccc32)s1 35.5 µM [inhibitor, single point]
CC(=O)N1c2ccc(S(=O)(=O)N(C)CC(=O)Nc3cccc(C)c3)cc2CC1C (centres undefined) 31.6 µM [activator, single point]
CN(C)C(=O)c1ccc(N/C=C(\C=O)c2nc3ccccc3o2)cc1 0.0891 µM [inhibitor, full curve, poor fit]
C=CCOc1ccc(C2C(C#N)=C(N)N(Nc3ccccc3)C3=C2C(=O)CC(C)(C)C3)cc1OC (centres undefined) 35.5 µM [activator, single point]
Cc1nc(NC(=O)c2ccc(Br)s2)sc1C(=O)N(C)C 5.62 µM [activator, single point]
CCc1cc(=S)n2c([nH]c3ccccc32)c1C#N 35.5 µM [inhibitor, single point]
CCOc1ccc(NS(=O)(=O)c2ccc3c(c2)N(C(C)=O)CCS3)cc1 15.8 µM [activator, single point]
COc1ccc(-c2cc(C(=O)N3CCCCC3)c3ccccc3n2)cc1OC 10 µM [activator, partial curve]
Cc1nn(-c2ccccc2)c(Cl)c1/C=N/Nc1nc2ccccc2[nH]1 12.6 µM [inhibitor, partial curve, poor fit]
Cc1ccc2nc(Cc3ccc(N)cc3)oc2c1 0.631 µM [activator, full curve, poor fit]
Cc1cc(C(=O)NC2CCCc3c2cnn3-c2ccc(C)c(C)c2)n(C)n1 (centres undefined) 5.01 µM [inhibitor, full curve, poor fit]
O=C(CSc1nc(-c2ccccc2)c(-c2ccccc2)o1)Nc1nncs1 35.5 µM [inhibitor, single point]
O=C(NCCN1CCOCC1)c1ccc(/C=C2\Sc3ccccc3N(Cc3ccc(F)cc3)C2=O)cc1 35.5 µM [inhibitor, single point]
COC(=O)/C(=C/c1cn(C)c2ccccc12)[N+](=O)[O-] 25.1 µM [inhibitor, single point]
COC(=O)c1cn(NC(=O)c2ccc(OC)c(OC)c2)c(=O)c2ccccc12 0.112 µM [inhibitor, full curve, poor fit]
COc1ccc(COC(=O)Nc2cn(C)nc2C(F)(F)F)cc1 12.6 µM [activator, partial curve]
Nc1nc(SCc2ccc(Cl)cc2Cl)nc2nc3c(cc12)CCCC3 35.5 µM [inhibitor, single point]

Potency, active:
CCSc1nnc(NC(=O)CSc2nccn2-c2cccc(C)c2C)s1 10 µM
CCc1ccc2c(c1)cc(CN(C(=S)Nc1cccc(C)c1)C1CC1)c1nnnn12 6.31 µM
Cc1ccc(C(C[N+](=O)[O-])c2c(-c3ccccc3O)[nH][nH]c2=O)cc1 (centres undefined) 5.01 µM
Cn1c(Cn2c3ccccc3c3ccccc32)n[nH]c1=S 3.55 µM
O=C(NC(=S)NC1CCCCC1)c1ccc(F)cc1 3.16 µM
Cc1cccc(NC(=S)/N=C(\N)Nc2nc(C)c3cc(C)ccc3n2)c1 7.08 µM
Cc1ccc(-c2n[nH]c(=S)n2C)cc1Cl 0.562 µM
Cn1c(/C(C#N)=C(\O)c2ccc(Cl)s2)nc2ccccc21 2 µM
O=C(NNc1nc(-c2ccc(F)cc2)cs1)c1ccccc1 5.01 µM
C=CCNC(=S)N/N=C/c1cn(-c2ccccc2)nc1-c1ccc(OC)cc1 0.708 µM
COc1ccc(Br)cc1/C=C/C(=O)NC(=S)Nc1ccc(CN2CCOCC2)cc1 1.78 µM
O=c1[nH]c(CCl)nc2cc(-c3ccc(Cl)cc3)sc12 7.08 µM
c1ccc(CSCc2cn3ccccc3n2)cc1 12.6 µM
FC(F)(F)c1cc(CCN2C(=S)NC[C@@H]2Cc2ccccc2)cc(C(F)(F)F)c1 3.55 µM
COc1cc2c(cc1NC(=O)COC(=O)CNC(=O)c1ccccc1)oc1ccccc12 11.2 µM
C/C(=N\Nc1ncc(Cl)cc1Cl)c1ccc2c(c1)OCO2 7.08 µM

Not a retest: entries from further up.
Potency, active:
Cc1cccc(NC(=S)/N=C(\N)Nc2nc(C)c3cc(C)ccc3n2)c1 7.08 µM
Cc1ccc(-c2n[nH]c(=S)n2C)cc1Cl 0.562 µM
Cn1c(/C(C#N)=C(\O)c2ccc(Cl)s2)nc2ccccc21 2 µM
O=C(NNc1nc(-c2ccc(F)cc2)cs1)c1ccccc1 5.01 µM

Next part:

Activity change, negative = inhibition, inactive:
O=C1[C@H]2[C@H]3[C@H](O)[C@H](O)C/C(=N/OCc4ccccc4)[C@@H]3CC[C@@H]2C(=O)N1C1CCCCC1 3.14% [at 10 µM]
